Reference: article PMC10307626, “Structural basis of NINJ1-mediated plasma membrane rupture in cell death” (Nature, 2023)
These are yes or no findings as the source states them, for the method shown. In cells and extracts the contact can be indirect. Some binding calls cover weakened binding; strength is not graded here.

Target: endogenous mouse NINJ1 in bone-marrow-derived macrophages (mouse (endogenous in BMDMs)) (UniProt O70131)
Test: cross-linking; primed mouse BMDMs, untreated or stimulated with nigericin (2–85 min or 1.5 h), then membrane-impermeable BS3 (3 mM) for 5 min at room temperature, stopped with 20 mM Tris pH 7.5; western blot of lysates combined with precipitated supernatants

B1: endogenous mouse NINJ1 in bone-marrow-derived macrophages (protein, UniProt O70131 1-152)
chain: MESGTEEYELNGDLRPGSPGSPDALPPRWGLRNRPINVNHYANKKSAAESMLDIALLMANASQLKAVVEQGNDFAFFVPLVVLISISLVLQIGVGVLLIFLVKYDLNNPAKHAKLDFLNNLATGLVFIIVVVNIFITAFGVQKPVMDVAPRQ
- binding: binds
